{"source": "the supplement of paper PMC7125110", "parents": {"B1": {"name": "glmS ribozyme (parent)", "chain": "AUAAAAGCGCCAGAACUACAGAAAUGUAGUUGACGAGGAGGAGGUUUAUCGAAUUUUCGGCGGAUGCCUCCAAA"}}, "note": "± gives the standard error. Many entries were measured with a wide error."}
{"variants_of": "B1", "experiment": "KM; higher = weaker cofactor use; RNA array", "details": "with glucosamine-6-phosphate", "summary_of_the_method": "(§1)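 Using a hybridised Cy3 probe at 37 °C, barcoded ribozyme variants transcribed in situ by E. coli RNA polymerase on sequenced MiSeq chips were monitored across tiles imaged over ~14 h. The flow contained glucosamine-6-phosphate from 40 μM to 10 mM in HEPES/KCl/Mg(OAc)2 buffer. Signals were normalised to baseline and to non-cleaving reference variants before per-tile medians were fit to one- or two-exponential decays to yield kobs. Weighted Michaelis–Menten fits across concentrations gave kcat and KM.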", "units": {"KM": "µM"}}
{"variant": "A15U C50G", "KM": "53.9 ± 41"}
{"variant": "A14C U54G", "KM": "3310 ± 1300"}
{"variant": "C11U A14C", "KM": "2630 ± 1500"}
{"variant": "A12C U56G", "KM": "3360 ± 910"}
{"variant": "A15U C70A", "KM": "327 ± 260"}
{"variant": "A12C C70G", "KM": "572 ± 440"}
{"variant": "G13A", "KM": "4830 ± 750"}
{"variant": "A15G C16G", "KM": "2660 ± 820"}
{"variant": "G13A C16U", "KM": "2220 ± 460"}
{"variant": "C19U", "KM": "179 ± 140"}
{"variant": "A15U U47A", "KM": "1960 ± 890"}
{"variant": "A14U U55G", "KM": "2280 ± 1100"}
{"variant": "A12G U49G", "KM": "138000 ± 50000"}
{"variant": "C11U C16U C71U", "KM": "1100 ± 540"}
{"variant": "A12U C58A", "KM": "24100 ± 8900"}
{"variant": "A12C U54G G66U", "KM": "3400 ± 2200"}
{"variant": "C11A U55G", "KM": "1740 ± 1400"}
{"variant": "C11A U55C", "KM": "1650 ± 880"}
{"variant": "G29C U46G", "KM": "1710 ± 930"}
{"variant": "A15G U56G", "KM": "972 ± 640"}
{"variant": "C16U A42G", "KM": "1200 ± 680"}
{"variant": "A15U G29C", "KM": "2340 ± 910"}
{"variant": "A12U U31G U47C", "KM": "925 ± 880"}
{"variant": "U30A A53U", "KM": "1860 ± 480"}
{"variant": "U30A A53G", "KM": "1280 ± 780"}
{"variant": "U30A A53C", "KM": "3590 ± 950"}
{"variant": "C10U G32A", "KM": "156 ± 86"}
{"variant": "C16U U55A", "KM": "1180 ± 810"}
{"variant": "G9A C71U", "KM": "26400 ± 2900"}
{"variant": "C11U U65G", "KM": "2580 ± 1200"}
{"variant": "A15C C70U", "KM": "162 ± 130"}
{"variant": "C11U A14C C70U", "KM": "879 ± 860"}
{"variant": "G9A U31A", "KM": "11500 ± 610"}
{"variant": "C16U C70G", "KM": "369 ± 200"}
{"variant": "A12G A64G", "KM": "2560 ± 1100"}
{"variant": "A12C U54A", "KM": "863 ± 530"}
{"variant": "A12C U54G", "KM": "2520 ± 1400"}
{"variant": "C16A G29A", "KM": "1790 ± 630"}
{"variant": "A14G U54C", "KM": "4420 ± 270"}
{"variant": "C16U G44A", "KM": "2000 ± 1200"}
{"variant": "G13A C67A", "KM": "4490 ± 2100"}
{"variant": "G13U U54G", "KM": "1090 ± 590"}
{"variant": "A12G G37U", "KM": "155 ± 150"}
{"variant": "C10U C67U", "KM": "2340 ± 1900"}
{"variant": "A12U U47A", "KM": "1490 ± 570"}
{"variant": "C10G A12G A53C G59C", "KM": "7470 ± 4800"}
{"variant": "C11U U55G", "KM": "1700 ± 660"}
{"variant": "A15G C67A", "KM": "785 ± 430"}
{"variant": "C10U C50G", "KM": "51.5 ± 26"}
{"variant": "A12G G59U", "KM": "1330 ± 1200"}
{"variant": "A12G G59C", "KM": "671 ± 630"}
{"variant": "U30A C67U", "KM": "1980 ± 1100"}
{"variant": "U30A C67G", "KM": "1650 ± 330"}
{"variant": "G29U C58A", "KM": "3860 ± 2300"}
{"variant": "C16G A48U", "KM": "171000 ± 90000"}
{"variant": "A12C U47C", "KM": "1840 ± 380"}
{"variant": "C11U U47G", "KM": "734 ± 380"}
{"variant": "A15G G59U", "KM": "3070 ± 1700"}
{"variant": "A14C G35C", "KM": "488 ± 290"}
{"variant": "A15G U45G", "KM": "1730 ± 260"}
{"variant": "A15G G66C", "KM": "833 ± 220"}
{"variant": "A14C C50U", "KM": "12000 ± 9900"}
{"variant": "A15C U30A A48U", "KM": "2170 ± 1200"}
{"variant": "G7A A15G U54G", "KM": "22900 ± 13000"}
{"variant": "A14C C58A", "KM": "3250 ± 500"}
{"variant": "A12U G43U", "KM": "1790 ± 1200"}
{"variant": "A12U G43C", "KM": "6950 ± 1500"}
{"variant": "G9A C67A", "KM": "1810 ± 1700"}
{"variant": "C11A A15C C70A", "KM": "52.2 ± 33"}
{"variant": "C10G A12U", "KM": "26500 ± 14000"}
{"variant": "C11U C16G", "KM": "2850 ± 410"}
{"variant": "G13A U30G", "KM": "6050 ± 1100"}
{"variant": "C11U U54G", "KM": "1420 ± 1000"}
{"variant": "A14C G29C", "KM": "12400 ± 6700"}
{"variants_of": "B1", "experiment": "self-cleavage kobs at 10000 uM GlcN6P; higher = faster cleavage; RNA array", "details": "with glucosamine-6-phosphate", "summary_of_the_method": "as §1", "units": {"self-cleavage kobs at 10000 uM GlcN6P": "s⁻¹"}}
{"variant": "A15U C50G", "self-cleavage kobs at 10000 uM GlcN6P": "0.000688 ± 0.00043"}
{"variant": "G9A C71U", "self-cleavage kobs at 10000 uM GlcN6P": "1.57e-05 ± 1.6e-05"}
{"variant": "C10G A12U", "self-cleavage kobs at 10000 uM GlcN6P": "2.24e-05 ± 1.3e-05"}
{"variants_of": "B1", "experiment": "self-cleavage kobs at 40 uM GlcN6P; higher = faster cleavage; RNA array", "details": "with glucosamine-6-phosphate", "summary_of_the_method": "as §1", "units": {"self-cleavage kobs at 40 uM GlcN6P": "s⁻¹"}}
{"variant": "C11U A14C", "self-cleavage kobs at 40 uM GlcN6P": "1.41e-05 ± 1.1e-05"}
{"variant": "A12C C70G", "self-cleavage kobs at 40 uM GlcN6P": "1.81e-05 ± 1.1e-05"}
{"variant": "A12U U31G U47C", "self-cleavage kobs at 40 uM GlcN6P": "2.54e-05 ± 1.3e-05"}
{"variants_of": "B1", "experiment": "self-cleavage kobs at 160 uM GlcN6P; higher = faster cleavage; RNA array", "details": "with glucosamine-6-phosphate", "summary_of_the_method": "as §1", "units": {"self-cleavage kobs at 160 uM GlcN6P": "s⁻¹"}}
{"variant": "A15U C70A", "self-cleavage kobs at 160 uM GlcN6P": "2.07e-05 ± 1e-05"}
{"variant": "G29C U46G", "self-cleavage kobs at 160 uM GlcN6P": "3.58e-05 ± 1.9e-05"}
{"variant": "C11U A14C C70U", "self-cleavage kobs at 160 uM GlcN6P": "2.63e-05 ± 1.6e-05"}
{"variant": "C16U G44A", "self-cleavage kobs at 160 uM GlcN6P": "2.57e-05 ± 1.7e-05"}
{"variant": "U30A C67G", "self-cleavage kobs at 160 uM GlcN6P": "1.51e-05 ± 1.3e-05"}
{"variant": "C11U U47G", "self-cleavage kobs at 160 uM GlcN6P": "2.51e-05 ± 1.6e-05"}
{"variant": "C11U C16G", "self-cleavage kobs at 160 uM GlcN6P": "2.31e-05 ± 1.3e-05"}
{"variant": "A14C G29C", "self-cleavage kobs at 160 uM GlcN6P": "2.18e-05 ± 2e-05"}
{"variants_of": "B1", "experiment": "self-cleavage kobs at 2500 uM GlcN6P; higher = faster cleavage; RNA array", "details": "with glucosamine-6-phosphate", "summary_of_the_method": "as §1", "units": {"self-cleavage kobs at 2500 uM GlcN6P": "s⁻¹"}}
{"variant": "A12G U49G", "self-cleavage kobs at 2500 uM GlcN6P": "1.82e-05 ± 9.3e-06"}
{"variant": "C11U U65G", "self-cleavage kobs at 2500 uM GlcN6P": "0.000107 ± 5.5e-05"}
{"variant": "C11A A15C C70A", "self-cleavage kobs at 2500 uM GlcN6P": "3.54e-05 ± 2.7e-05"}
{"variants_of": "B1", "experiment": "self-cleavage kobs at 640 uM GlcN6P; higher = faster cleavage; RNA array", "details": "with glucosamine-6-phosphate", "summary_of_the_method": "as §1", "units": {"self-cleavage kobs at 640 uM GlcN6P": "s⁻¹"}}
{"variant": "C10U G32A", "self-cleavage kobs at 640 uM GlcN6P": "2.48e-05 ± 1.6e-05"}
{"variant": "A12G G59C", "self-cleavage kobs at 640 uM GlcN6P": "2.8e-05 ± 1.7e-05"}
{"variant": "C11A A15C C70A", "self-cleavage kobs at 640 uM GlcN6P": "4.33e-05 ± 3.7e-05"}
